According to patent publication US8263628B2, “Fluorine-containing organosulfur compound and pesticidal composition thereof” (Sumitomo Chemical Company, Limited., priority 2007, dated 2012):
Some results were stated once for a whole list of compounds, not compound by compound.

Tests used:
[1] = tested on: Nilaparvata lugens; test: Soil drench (absorption from cup bottom) test on rice plants against Nilaparvata lugens larvae; format: in vivo; details: 55.6 ppm test solution, 45 mL absorbed from bottom of cup; 30 Nilaparvata lugens larvae released; examined after 6 days
[2] = tested on: Nilaparvata lugens; test: Foliar spray test on rice plants against Nilaparvata lugens larvae; format: in vivo; details: 500 ppm test solution sprayed 20 mL/cup; 30 Nilaparvata lugens larvae released; examined after 6 days

SMILES	number of insects being parasitic on the rice plant [1]	number of insects parasitic on the rice plant [2]
FC(F)(F)CCSCc1ccc(C(F)(F)F)nc1 [present compound (1), 2-trifluoromethyl-5-(3,3,3-trifluoropropylsulfanylmethyl)pyridine]	≤ 3	≤ 3
O=S(=O)(CCC(F)(F)F)Cc1ccc(C(F)(F)F)nc1 [present compound (2), 2-trifluoromethyl-5-(3,3,3-trifluoropropanesulfonylmethyl)pyridine]	≤ 3	≤ 3
CC(SCCC(F)(F)F)c1ccc(C(F)(F)F)nc1 (centres unmarked) [present compound (3), 2-trifluoromethyl-5-[1-(3,3,3-trifluoropropylsulfanyl)ethyl]pyridine]	≤ 3	≤ 3
CC(c1ccc(C(F)(F)F)nc1)S(=O)(=O)CCC(F)(F)F (centres unmarked) [present compound (4), 2-trifluoromethyl-5-[1-(3,3,3-trifluoropropanesulfonyl)ethyl]pyridine]	≤ 3	≤ 3
CC(SCCC(F)(F)F)c1ccc(Cl)cn1 (centres unmarked) [present compound (6), 5-chloro-2-[1-(3,3,3-trifluoropropylsulfanyl)ethyl]pyridine]	≤ 3	≤ 3
CC(SCCC(F)(F)F)c1ccc(C(F)(F)F)cn1 (centres unmarked) [present compound (8), 5-trifluoromethyl-2-[1-(3,3,3-trifluoropropylsulfanyl)ethyl]pyridine]	≤ 3	≤ 3
CC(c1ccc(C(F)(F)F)cn1)S(=O)(=O)CCC(F)(F)F (centres unmarked) [present compound (9), 5-trifluoromethyl-2-[1-(3,3,3-trifluoropropanesulfonyl)ethyl]pyridine]	≤ 3	≤ 3
FC(F)(F)CCSCc1cnc(C(F)(F)F)nc1 [present compound (10), 2-trifluoromethyl-5-(3,3,3-trifluoropropylsulfanylmethyl)pyrimidine]	≤ 3	–
COc1ncc(CSCCC(F)(F)F)cn1 [present compound (12), 2-methoxy-5-(3,3,3-trifluoropropylsulfanylmethyl)pyrimidine]	–	≤ 3
COC(=O)C(Cl)(c1ccc(C(F)(F)F)cn1)S(=O)(=O)CCC(F)(F)F (centres unmarked) [present compound (14), methyl 2-chloro-2-(5-trifluoromethylpyridin-2-yl)-2-(3,3,3-trifluoropropylsulfonyl)acetate]	≤ 3	≤ 3
O=S(=O)(CCC(F)(F)F)C(Cl)c1ccc(C(F)(F)F)cn1 (centres unmarked) [present compound (15), 2-[chloro-(3,3,3-trifluoropropanesulfonyl)methyl]-5-trifluoromethylpyridine]	≤ 3	≤ 3
